Publication PMC6804006, “Synthesis, Biological Activities and Docking Studies of Novel 4-(Arylaminomethyl)benzamide Derivatives as Potential Tyrosine Kinase Inhibitors” (Molecules, 2019)

Assays:
Format in all cases: cell-based
A549 (lung carcinoma) = test: MTT anti-proliferative assay, A-549; settings: Homo sapiens, 48 h, 50% growth inhibition
Method: (§1) Each in vitro experiment was performed at least in triplicate, and the standard deviation of absorbance was less than 10% of the mean. For the in vitro assays, a stock solution (1% DMSO in the appropriate buffer with the tested compound diluted under sonication) was prepared from which several dilutions were made with the appropriate buffer.
(§2) Human cell lines were obtained from the Institute of Cytology, Russian Academy of Sciences. The cell lines studied were maintained in RPMI 1640 medium (AppliChem, Darmstadt, Germany) supplemented with 20% (HL-60, RPMI 1788) fetal calf serum (HyClone, Cramlington, UK), in DMEM (A 549) and Eagle’s MEM (AppliChem) (MCF7, HeLa) with 10% fetal calf serum (HyClone). Cells were cultivated at 37 °C in a humidified atmosphere of 5% CO2. Cellular sensitivities to clofarabine and its lipid derivatives were measured with the MTT assay. Cells were plated in triplicate in 96-well plates (10^5 cells/well for suspended cell cultures and 5 × 10^3 cells/well for monolayer cultures); on the same day (suspended cell cultures) or on the following day (monolayer cultures), compounds were added at the appropriate dilutions. […] The optical density was read on a HALO MPR-95 Microplate Reader (Dynamica Scientific Ltd., Australia) at 570 nm. The antiproliferative effects were determined as degrees of inhibition of tumor cells (%).

[1] = tested on: OKP-GS (carcinoma of the kidney); test: MTT anti-proliferative assay, OKP-GS; settings: Homo sapiens, 48 h, 50% growth inhibition
Method: as §1, §2

[2] = tested on: K-562 (chronic myelogenous leukemia); test: MTT anti-proliferative assay, K-562; settings: Homo sapiens, K562, 48 h, 50% growth inhibition
Method: as §1, §2

HeLa (cervix carcinoma) = test: MTT anti-proliferative assay, HeLa; settings: Homo sapiens, 48 h, 50% growth inhibition
Method: as §1, §2

[3] = tested on: HL-60 (promyelocytic leukemia); test: MTT anti-proliferative assay, HL-60; settings: Homo sapiens, HL-60, 48 h, 50% growth inhibition
Method: as §1, §2

[4] = tested on: MCF-7 (breast adenocarcinoma); test: MTT anti-proliferative assay, MCF-7; settings: Homo sapiens, MCF7, 48 h, 50% growth inhibition
Method: as §1, §2

Cc1ccc(NC(=O)c2ccc(CN3CCN(C)CC3)cc2)cc1Nc1nccc(-c2cccnc2)n1 [Imatinib, reference compound]
IC50 (A549 (lung carcinoma)): 54 µM | IC50 [1]: 48 µM | IC50 [2]: 0.41 µM | IC50 (HeLa (cervix carcinoma)): 45.8 µM | IC50 [3]: 44.5 µM | IC50 [4]: 49 µM
